The results in this text go back to patent publication US20220047631A1.

These are yes or no findings as the source states them, for the method shown. Some entries that bind do so weakly or less than the wild type.

The target of experiment [1] is Tn-OTS8 peptide tetramer (murine). The experiment in a line: yeast display, peptide tetramers (FIG. 35).
For experiment [2] the target is unchanged. The experiment in a line: flow cytometry of yeast-displayed clone with 10 nM OTS8p tetramer [B]. For orientation: A flow cytometer gives signals particle by particle.
Experiment [3] has the same target. The experiment in a line: yeast display, 10 nM peptide tetramer, flow cytometry.
The target of experiment [4] is T1, Tn-EVI2B glycopeptide, immobilized.
T1 sequence (peptide, Tn (GalNAc); biotin): STQPTSTV
The experiment in a line: condition: last point, right of the 10000 nM tick (about 50000 nM peptide coating); ELISA; x axis = coating concentration of the peptide; 237Ab fixed at 10 µg/ml [left]. A general note: An ELISA detects its analyte on a solid surface through an enzyme-linked reagent.

The target of experiment [5] is T2, Tn-ZIP6 glycopeptide, immobilized.
T2 sequence (peptide, Tn (GalNAc); biotin): STPPSVTS
The experiment is described as above.

A further experiment addresses T3, Tn-TFRC.
T3 sequence (peptide, T2, GalNAc (T*); biotinylated): GTESPVRE
The experiment is described as above.

In the next experiment the target is T4, Tn-LAMP.
T4 sequence (peptide, T2, GalNAc (T*); biotinylated): TTAPPAPP
The experiment is described as above.

In the next experiment the target is T5, Tn-PCDH.
T5 sequence (peptide, T2, GalNAc (T*); biotinylated): GTSASLVY
The description is as above.

The next experiment has as its target T6, Tn-PDXL.
T6 sequence (peptide, T2, GalNAc (T*); biotinylated): STKAEHLT
Described as above.

Experiment [6] has as its target T7, Tn-MUC1 glycopeptide, immobilized (human).
T7 sequence (peptide, Tn (GalNAc); biotin): STAPPAHG
Described as above.

B1: yeast-displayed 237 scFv TNGK mutant (scFv, not shown: large carriers; small tags and cut ends)
scFv: DIQLTQSPLSLPVSLGDQASISCRSSQSLVHSNGNTYLHWYLQKPGQSPKLLIYKVSNRFSGVPDRFSGSGSGTDFTLKISSVEAEDLGVYFCSQTNGKPTFGGGTKLEIKGGGGSGGGGSGGGGSQVQLQQSGGGLVQPGGSMKIFCAASGFTFSDAWMDWVRQSPEKGLEWVAEIRNKANNHETYYAESVKGRFTITRDDSKSRMSLQMNSLRAEDTGIYYCSGGKVRNAYWGQGTTVTVSS
On to B1, for which the binding entry in experiment [1], in experiment [2] and in experiment [3] was “binds” in each case.

B2: 237 monoclonal antibody (antibody, V domains shown)
VH: QVQLQQSGGGLVQPGGSMKIFCAASGFTFSDAWMDWVRQSPEKGLEWVAEIRNKANNHETYYAESVKGRFTITRDDSKSRMSLQMNSLRAEDTGIYYCSGGKVRNAYWGQGTTVTVSS
VL: DIQLTQSPLSLPVSLGDQASISCRSSQSLVHSNGNTYLHWYLQKPGQSPKLLIYKVSNRFSGVPDRFSGSGSGTDFTLKISSVEAEDLGVYFCSQSTHVPTFGGGTKLEIK
As for B2, the binding result (in experiment [4]; in experiment [5]; with Tn-TFRC; with Tn-LAMP; with Tn-PCDH; with Tn-PDXL) was “no binding” in each case. In experiment [6], the binding entry was “no binding”.
